Patent US20240279321A1 (THERINI BIO, published 2024)
Changes are numbered by the printed parent chain. No constants are given. Whether binding was seen depends on the method and setting. Binding calls can cover weak binding; strength is not graded here. Values belong to the binder of their own block, whether it stands above or below them. Where no end group is shown, it is not given here. The star is where a group is joined. Biotin = O=C1N[C@H]2[C@H](CS[C@H]2CCCCC(=O)*)N1

Columns and labels:
FGG [1] = test: ELISA (FGG ELISA), RFU readout
Fibrin [2] = test: ELISA (Fibrin ELISA), RFU readout
Fibrin [3] = test: ELISA
Fibrin [4] = test: ELISA (Fibrin ELISA), RFU readout; B and C are duplicates of clone 61278
FGG [5] = test: ELISA (FGG ELISA), RFU readout; B and C are duplicates of clone 61278

binding (FGG [1]): binds | binding (Fibrin [2]): binds | binding (Fibrin [3]): binds
B1: antibody clone 60143 (full length ADI-60143 IgG) (antibody, V domains shown)
VH: QVQLVQSGAEVKKPGASVKVSCKASGYTFTSTWIHWVRQAPGQGLEWIGLIDPSDSYTNYNQKFRGRATLTVDTSTSTAYMELSSLRSEDTAVYYCASSKPTGGWGQGTTVTVSS
VL: DIVMTQSPLSLPVTPGEPASISCRSSKSLLHSSGITYLSWYLQKPGQSPQLLIYQMSNLASGVPDRFSGSGSGTDFTLKISRVEAEDVGVYYCAQNLELPLTFGGGTKVEIKR

binding (Fibrin [4]): binds | binding (FGG [5]): binds | binding (Fibrin [3]): binds
B2: antibody clone 61278 (ADI-61278 IgG) (antibody, V domains shown)
VH: B1 VH with T32Y, I48M, A68V, L70M, K100D, P101A
VL: B1 VL with N96A
